# Source: the supplement of paper PMC11409438
# The list shows a part of the results. Repeats are few or missing, and single values can be far off.
# Assays:
# [1] = tested on: Caenorhabditis elegans ST65 (ncIs13[ajm-1::GFP]); test: 'Larvae/adult' ratio (MetaXpress pharynx counts; minimum value 1, so it appears to include adults; growth inhibition read-out); conditions: 10 µM; exposure time: 4-5 days from L1 at 20°C
# [2] = tested on: Caenorhabditis elegans ST65 (ncIs13[ajm-1::GFP]); test: vulvae per adult worm (MAPK/ERK-dependent vulval induction, MetaXpress) (vulvae/adult); higher = more vulval induction (less MAPK/ERK inhibition); conditions: 10 µM; exposure time: 4-5 days from L1 at 20°C
Compound,'Larvae/adult' ratio [1],vulvae per adult worm [2]
Cn1cc(C2=C(c3cn(C4CCN(Cc5ccccn5)CC4)c4ccccc34)C(=O)NC2=O)c2ccccc21,1.54,0.692
Cc1sc2c(c1C)C(c1ccc(Cl)cc1)=N[C@@H](CC(=O)Nc1ccc(O)cc1)c1nnc(C)n1-2,2.71,0.417
C=C1C[C@@H]2[C@H](CC[C@]3(C)C(=O)CC[C@@H]23)[C@@]2(C)C=CC(=O)C=C12 [Exemestane],2.68,1.19
O=C(O)CNC(=O)c1c(O)c2ccccc2n(Cc2ccccc2)c1=O,1.71,1.14
CC(O)(CS(=O)(=O)c1ccc(F)cc1)C(=O)Nc1ccc(C#N)c(C(F)(F)F)c1 (centres undefined) [Bicalutamide],2.96,1.14
COCC1(CO)C(=O)C2CCN1CC2 (centres undefined),2.51,0.795
COc1cc(C)[nH]c(=O)c1CNC(=O)c1c(C)n([C@H](C)C2CCOCC2)c2ccccc12,1.92,0.846
"OCC(Br)(Br)Br [2,2,2-Tribromoethanol]",1.59,1
CC[C@@H](C(=O)[C@@H](C)[C@@H](O)[C@H](C)[C@@H]1O[C@@H]([C@@H](CC)C(=O)O)CC[C@@H]1C)[C@H]1O[C@]2(C=C[C@@H](O)[C@]3(CC[C@@](C)([C@H]4CC[C@](O)(CC)[C@H](C)O4)O3)O2)[C@H](C)C[C@@H]1C [Salinomycin (from Streptomyces albus)],2.14,0.857
CCC1(c2ccc(N)cc2)CCC(=O)NC1=O (centres undefined) [Aminoglutethimide],3.75,1.75
CCNC(=O)C[C@@H]1N=C(c2ccc(Cl)cc2)c2cc(OC)ccc2-n2c(C)nnc21,1.79,0
CCc1c(C(=O)C(N)=O)c2c(OCC(=O)O)cccc2n1Cc1ccccc1,1.29,1

# 2 entries from above in another layout:
Compound | 'Larvae/adult' ratio [1] | vulvae per adult worm [2]
OCC(Br)(Br)Br [2,2,2-Tribromoethanol] | 1.59 | 1
CC[C@@H](C(=O)[C@@H](C)[C@@H](O)[C@H](C)[C@@H]1O[C@@H]([C@@H](CC)C(=O)O)CC[C@@H]1C)[C@H]1O[C@]2(C=C[C@@H](O)[C@]3(CC[C@@](C)([C@H]4CC[C@](O)(CC)[C@H](C)O4)O3)O2)[C@H](C)C[C@@H]1C [Salinomycin (from Streptomyces albus)] | 2.14 | 0.857
